Data: article PMC11760598
Where two headings read alike, the source gives them in different places. Results are given in words; binding and its absence hold for the method and conditions named. Binding seen in cells or lysates may run through a third protein. These calls come from enrichment with a bait or labelling near it, and not all partners need be listed. Tags and fused reporters may be left off the sequences shown.

Protein sequences, listed by entry. Tags and fused reporters are not part of them.
UniProt Q69ZW3: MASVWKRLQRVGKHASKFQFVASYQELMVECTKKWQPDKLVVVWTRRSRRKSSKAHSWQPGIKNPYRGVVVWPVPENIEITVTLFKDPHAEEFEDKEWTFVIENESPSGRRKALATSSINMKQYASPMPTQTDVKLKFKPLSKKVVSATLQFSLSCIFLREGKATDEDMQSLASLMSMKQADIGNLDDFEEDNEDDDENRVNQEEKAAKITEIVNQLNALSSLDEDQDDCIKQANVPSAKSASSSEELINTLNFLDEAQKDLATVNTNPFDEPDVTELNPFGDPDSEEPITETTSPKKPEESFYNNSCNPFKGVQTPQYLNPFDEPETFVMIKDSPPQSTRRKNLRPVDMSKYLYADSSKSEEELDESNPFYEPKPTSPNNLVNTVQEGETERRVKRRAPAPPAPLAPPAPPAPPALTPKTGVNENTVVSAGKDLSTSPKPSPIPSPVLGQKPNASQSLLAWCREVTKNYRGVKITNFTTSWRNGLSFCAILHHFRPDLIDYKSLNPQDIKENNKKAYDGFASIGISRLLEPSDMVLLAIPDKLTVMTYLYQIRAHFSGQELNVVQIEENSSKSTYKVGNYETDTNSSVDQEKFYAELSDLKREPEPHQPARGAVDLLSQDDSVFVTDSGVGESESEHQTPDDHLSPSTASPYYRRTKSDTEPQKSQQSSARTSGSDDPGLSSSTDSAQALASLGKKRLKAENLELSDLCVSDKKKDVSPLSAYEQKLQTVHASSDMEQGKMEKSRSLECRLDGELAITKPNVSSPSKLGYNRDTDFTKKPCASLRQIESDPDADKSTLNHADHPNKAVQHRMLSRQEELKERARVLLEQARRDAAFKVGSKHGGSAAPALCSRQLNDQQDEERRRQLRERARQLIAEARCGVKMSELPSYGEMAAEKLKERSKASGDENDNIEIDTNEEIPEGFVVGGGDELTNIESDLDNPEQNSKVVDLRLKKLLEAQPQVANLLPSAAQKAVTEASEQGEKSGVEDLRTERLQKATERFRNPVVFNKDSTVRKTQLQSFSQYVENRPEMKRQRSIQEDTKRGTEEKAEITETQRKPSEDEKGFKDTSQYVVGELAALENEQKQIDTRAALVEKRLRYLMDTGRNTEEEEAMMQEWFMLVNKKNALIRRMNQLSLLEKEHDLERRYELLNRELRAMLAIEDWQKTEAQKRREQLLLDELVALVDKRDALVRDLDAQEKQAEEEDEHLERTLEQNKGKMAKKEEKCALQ

T1: Rab10-(GGGGS)13-mBioID2-HA fusion protein (mouse) (UniProt P61027)
T1 sequence: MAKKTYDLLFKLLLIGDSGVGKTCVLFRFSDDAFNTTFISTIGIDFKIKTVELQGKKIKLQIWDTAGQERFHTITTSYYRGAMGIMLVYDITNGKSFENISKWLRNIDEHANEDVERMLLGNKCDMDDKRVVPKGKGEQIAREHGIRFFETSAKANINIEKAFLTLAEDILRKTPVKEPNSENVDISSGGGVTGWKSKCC


Assays:
[1] = molecular target: T1, Rab10-(GGGGS)13-mBioID2-HA fusion protein (mouse); assay: proximity labelling; BioID: NIH 3T3 Rab10-BioID2-HA cells in 50 uM biotin for 18 h, uninfected or infected with Δm138-MCMV (MOI 10; 6 hpi and 18 hpi); RIPA lysates precipitated overnight at 4°C with NeutrAvidin agarose, stringent washes (1% SDS, 500 mM NaCl, 250 mM LiCl); biotinylated proteins detected by Western blot
[2] = molecular target: T1, Rab10-(GGGGS)13-mBioID2-HA fusion protein (mouse); assay: as above; remark: listed apart in the source

binding [1]	binding [2]	Molecule
binds	–	EHBP1 (from UniProt Q69ZW3 1-1231)
–	binds weakly	Rabin8 (protein, UniProt Q68EF0 1-428) MANDPLEGFHEVNLASPTSPDLLGVCDPGTQEQTTSPSVIYRPHPSTLCAAPLQANALDLSDLPTQPVYSSPRHFNCAEVSNISAHAPDPASSVPSAVASGLTKLTSRKDSCNAEREFLQGATITEASAGNDDIFGLSTDSLSRLRSPSVLEVREKGYERLKEELAKAQREAHKMVREANVKQATAEKQLKEAQGKIDVLQAEVAALKTLVLSSSPTSPTQEPLAAAKTPFKRGHTRNKSTSSAMGGSHQDLSVIQPIVKDCKEADLSLYNEFRSWKDEPTMDRTCPFLDKIYQEDIFPCLTFAKSELASAVLEAVENNTLSIEPVGLQPIRFVKASAVECGGPKKCALTGQSKPCRHRIRLGDSSCCYYISPFCRYRITSVCNFFTYIRYIQQGLVKQQDVDQMFWEVMQLRKEMSLAKLGYFKEEL

Second part, the molecule before the results:

Molecule	binding [1]	binding [2]
ACAP2 (protein, UniProt Q6ZQK5 1-770) MKMTVDFEECLKDSPRFRAALEEVEGDVAELELKLDKLVKLCIAMIDTGKAFCVANKQFMNGIRDLAQYSSNDAVVETSLTKFSDSLQEMINFHTILFDQTQRSIKAQLQNFVKEDLRKFKDAKKQFEKVSEEKENALVKNAQVQRNKQHEVEEAANILTATRKCFRHIALDYVLQINVLQSKRRSEILKSMLSFMYAHLAFFHQGYDLFSELGPYMKDLGAQLDRLVVDAAKEKREMEQKHSTIQQKDFSSDDSKLEYNVDAANGIVMEGYLFKRASNAFKTWNRRWFSIQNNQLVYQKKFKDSPTVVVEDLRLCTVKHCEDIERRFCFEVVSPTKSCMLQADSEKLRQAWIKAVQTSIATAYREKGDESEKLDKKSSPSTGSLDSGNESKEKLLKGESALQRVQCIPGNTSCCDCGLADPRWASINLGITLCIECSGIHRSLGVHFSKVRSLTLDTWEPELLKLMCELGNDVINRVYEAKLEKMGVKKPQPGQRQEKEAYIRAKYVERKFVDKYSALLSPSEQEKRIISKSCEDQRLSHARASVHTPVKSNDSGIQQCSEDGRESLPSTVSANSLYEPEGERQESSVFLDSKHLNPGLQLYRASYEKNLPKMAEALAHGADVNWANSDENQATPLIQAVLGGSLVTCEFLLQNGANVNQRDVQGRGPLHHATVLGHTGQVCLFLKRGANQHATDEEGKDPLSIAVEAANADIVTLLRLARMNEEMRESEGLYGQPGDETYQDIFRDFSQMASNNPEKLNRFQQDSQKF	–	binds weakly
AS160 (protein, UniProt Q8BYJ6 1-1307) MESPSCIQDEPFPHPLEPEPSAPAQPGATKPGDKRFRLWYVGGSCLDRRTTLPMLPWLMAEIRRRSQKPDAGGCGAPAAREVILVLSAPFLRCVPAPGAGVGGGAGSGAVQPNTGVFIFEHKAQHISRFIHNSHDLTYFAYLIKAQPDDPESQMACHVFRATDPNQVPDVISSIRQLSKAAMKEDSKPSKDNEDAFYNSQKFEVLYCGRVIVTHKKAPSSLIDDCKDKFSLHEQQRLKLQGERGGDPGDEMGVLEVESPVSPDDSLPEKADGTVNSPRALPSLASLPALASQPALASSRVCFPERILEDCGFDEQQEFRSRCSSVTGVMQKKVHENNQKTQPRRRHASAPSHVQPSDSEKNRTMLFQVGRFEINLISPDTKSVVLEKNFKDISSCSQGIKHVDHFGFICRESPEPGLSQYICYVFQCANESLVDEVMLTLKQAFSTAAALQSAKTQIKLCETCPMHSLHKLCERIEGLYPPRAKLVIQRHLSSLTDNEQADIFERVQKMKPISDQEENELVILHLRQLCEAKQRTHVHIGEGPAIISNSTIPENVTSGGRFKLDVLKNKAKRSLTSSLENIFSRGANRMRGRLGSMDSFERANSLASEKDFSPGDSPPGTPPASPLSSAWHAFPEEDSDSPQFRRRAHTFSHPPSSSRRKLNLQDGKAHGLRSPLLRQSSSEQCSIVPSARRMYKESNSSCSLPSLHTSFSAPSFTAPSFLKSFYQNSGRLSPQYENEIRQDTASESSDGEGRKRTSSTCSNESLNAGGTPVTPRRVSWRQRIFLRVASPVNKSPSAMQQQKDGLDRTELLPLSPLSPTMEEEPLIIFLSGDEDTEKVEEKKKSKELKSLWKKAIHQQILLLRMEKENQKLEEARRDELQSRKVKLDYEEVGTCQKEILIAWDKKLLNCRTKIRCDMEDIHTSLKEGVPKSRRGEIWQFLALQYRLRHRLPNKHQPPDTSYKELLKQLTAQQHAILVDLGRTFPTHPYFSVQLGAGQLSLFNLLKAYSLLDKEVGYCQGISFVAGVLLLHMSEEQAFEMLKFLMYDLGFRKQYRPDMMSLQIQMYQLSRLLHDYHRELYNHLEENEISPSLYAAPWFLTLFASQFPLGFVARVFDIIFLQGTEVIFKVALSLLSSQEALIMECENFENIVEFLKSTLPDMNTTEMEKIITQVFEMDISKQLHAYEVEYHVLQDELLESSYACEDNESLEKLERANNQLKRQNMDLLEKLQVAHAKIQALESNLETLLTRETKMKALIRTLEQDKMAYQKTVEQIRKLLPADALANCELLLKDLTHPTNDKAKAGNKP	–	binds weakly
